Laboratory results as given in patent publication US20140004192A1, “PHARMACEUTICAL FORMULATIONS OF INDIBULIN AND USES THEREOF” (Ziopharm Oncology, Inc., priority 2012, published 2014).
At least one read-out could not be matched to a standard name with certainty.

Assay: Membrane-permeation test
Format: physicochemical
Settings: feed MFDS, 37° C.
Protocol: The 10% A HPMCAS-H(HPMCAS high grade), 15% A HPMCAS-H, 20% A HPMCAS-H, 25% A HPMCAS-H, 25% A HPMCAS-M (HPMCAS medium grade) and 50% A HPMCAS-M SDD formulations were also evaluated in a membrane-permeation test at 37° C. in a temperature-controlled box. Test procedures were described, for example, in U.S. Pat. No. 7,611,630. For example, a membrane-permeation test of 10% A HPMCAS-H indibulin SDD was performed using the following procedures: • 1. Accurately weigh 1 mgA (10 mg of 10% A:HPMCAS-H SDD) into the outer-glass reservoir of the test apparatus. All samples are prepared in duplicates. • 2. Add 5 mL MFDS and start the timer. • 3. Cap each reservoir and vortex at medium setting for 1 minute. Stir at 100 rpm. • 4. After 9 minutes of addition of MFDS, add 5 mL of 80/20 (wt/wt) […]/Decane permeate to the inside of the membrane cells. • 5. After 1 minute (at 10 minutes) place a cell containing the permeate solution into the outer reservoir holding the feed/drug solution. Take a O-minute time point. Tilt the entire apparatus at a 45° angle to ensure that no air bubbles are trapped under the membrane. • 6. Place apparatus back on stir plate at 100 rpm. • 7. […]
This test assessed the rate of solubilized drug indibulin that passed through a synthetic membrane from aqueous MFDS to an aqueous immiscible organic sink solution. […]

O=C(Nc1ccncc1)C(=O)c1cn(Cc2ccc(Cl)cc2)c2ccccc12 [Bulk Crystalline Drug, indibulin]
Total Drug Recovery: 10 % Dose
